This is an account of results in paper PMC12431657, “Discovery and mechanistic insights of dibenzoylmethane as a broad spectrum inhibitor of coronavirus” (PLOS Pathogens, 2025).

Counter-ions that a name gives are not always drawn. Like-named read-outs stand apart in the source and are kept apart here. In all, about 3,300 compounds went through this assay and about 95 (3%) showed an effect of 50% or more. The list shows a part of the results. Numbered stars: 1 amine (or outer) side, 2 acyl side, 3 side chain; on linkers, the order of the positions; unused ones are H or OH. Bridge positions count the residues as written; N and C are the ends. Square brackets hold non-standard residues; d marks the D form. Peptide text beside a SMILES is read from it. X2 = CC(C)CCCCCCCCC[C@H](CC(=O)[*:1])O[*:2]

The subject of this assay is HCoV-229E. More on the design: species or system Huh-7; HTS, protection from HCoV-229E induced cell death, luminescent cell viability (CellCounting-Lite 2.0), inhibition rate. Particulars: 24 h post infection, 1 h compound pre-incubation, 10 µM, inhibitor.

Take `Nc1ccn([C@@H]2O[C@H](CO)[C@@H](O)[C@@H]2O)c(=O)n1` [Cytarabine]: the “229E Inhibition rate” value was 0%.
Consider `COc1ccc(C[C@@H]2c3cc(Oc4cc(C[C@@H]5c6cc(OC)c(OC)cc6CCN5C)ccc4O)c(OC)cc3CCN2C)cc1` [Neferine], for which the “229E Inhibition rate” value was found to be 6.2%.
Turning to `C=C(C)[C@@H](CC=C(C)C)C[C@@]12C[C@@H](CC=C(C)C)C(C)(C)[C@@](CC=C(C)C)(C(=O)C(C(=O)c3ccc(O)c(O)c3)=C1O)C2=O` [Garcinol], the “229E Inhibition rate” value is listed as 3.5%.
As for `C[N+](C)(C)[C@@H](Cc1c[nH]c(=S)[nH]1)C(=O)[O-]` [Ergothioneine], the “229E Inhibition rate” value is recorded as 12.7%.
The same measure, in the same setting: as for `CC(C)=CCc1c(O)cc(O)c2c(=O)c(-c3ccc(O)cc3)coc12` [Lupiwighteone], the figure is 63.8%; as for `OCc1cn[nH]c1` [4-Hydroxymethylpyrazole], 48.6%; as for `Oc1cc(O)c2c(c1)O[C@@H](c1cc(O)c(O)c(O)c1)[C@H](O)C2` [(-)-Gallocatechin], 16.1%.
Consider `CC(/C=C/C=C(\C)C(=O)O)=C\C=C\C=C(C)\C=C\C=C(/C)C(=O)O` [Transcrocetinate disodium], for which, where the note is “229E Inhibition rate, 24 h”, the “229E Inhibition rate” value came out at 10.6%.
As for `CCCCC(CC)CCC(=O)O` (stereo not drawn) [4-Ethyloctanoic acid], the “229E Inhibition rate” value was 0%.
As for `Cc1cccc(O)c1O` [3-Methylcatechol], the “229E Inhibition rate” value is reported as 35.9%.
As for `O=c1[nH]cnc2c1ncn2[C@@H]1O[C@H](CO)[C@@H](O)[C@H]1O` [Inosine], the “229E Inhibition rate” value worked out at 11.8%.
In the case of `COc1ccc(-c2coc3cc(O)ccc3c2=O)cc1O` [Calycosin], the “229E Inhibition rate” value is given as 13.9%.
Regarding `O=C(O)C[C@@H](O)C(=O)O` [D-(+)-Malic acid], the “229E Inhibition rate” value turned out to be 7.2%.
Turning to `NC(=O)c1ccc[n+]([O-])c1` [Nicotinamide N-oxide], the “229E Inhibition rate” value is 12.1%.
The same measure, in the same setting: as for `CC1=C(C/C=C(\C)CCCC(C)CCCC(C)CCCC(C)C)C(=O)c2ccccc2C1=O` (stereo not drawn) [Vitamin K], the figure is 7.3%; as for `O=c1ccc2ccccc2o1` [Coumarin], 17.3%.
Regarding `C[N+](C)(C)[O-]` [Trimethylamine N-oxide], the “229E Inhibition rate” value (229E Inhibition rate, 24 h) is reported as 7.5%.
Take `C=C[C@H]1CN2CC[C@H]1C[C@H]2[C@H](O)c1ccnc2ccc(OC)cc12` [Quinine (hydrochloride dihydrate)]: the “229E Inhibition rate” value (229E Inhibition rate, 24 h) stood at 0%.
On to `c1ccc2c(c1)[nH]c1cnccc12` [Norharmane], for which the “229E Inhibition rate” value turned out to be 25.5%.
Regarding `CCOC(=O)c1c(C)cc(O)cc1O` [Ethyl Orsellinate], the “229E Inhibition rate” value worked out at 21.3%.
Take `OC[C@H]1O[C@@H](O[C@H]2[C@H](O)[C@@H](O)[C@H](O)O[C@@H]2CO)[C@H](O)[C@@H](O)[C@H]1O` [Lactose]: the “229E Inhibition rate” value came to 22.6%.
Regarding `C[C@H](O)[C@H](O)c1cnc2nc(N)[nH]c(=O)c2n1` [6-Biopterin], the “229E Inhibition rate” value is 11.1%.
As to `CC1=CC[C@@H](C(C)(C)O)CC1` [α-Terpineol], the “229E Inhibition rate” value (229E Inhibition rate, 24 h) amounted to 0%.
For `O=c1ccn([C@@H]2O[C@H](COP(=O)(O)OP(=O)(O)OP(=O)(O)O)[C@@H](O)[C@H]2O)c(=O)[nH]1` [Uridine triphosphate (trisodium salt)], the “229E Inhibition rate” value is recorded as 12.4%.
For the molecule `COc1cc(O)c2c(=O)cc(-c3ccc(O)cc3)oc2c1` [Genkwanin], the “229E Inhibition rate” value was 24.9%.
For the molecule `Oc1cc2c(cc1O)[C@@H]1c3ccc(O)c(O)c3OC[C@]1(O)C2` [Hematoxylin], the “229E Inhibition rate” value is listed as 7.3%.
Take `COc1ccc(-c2cc(=O)c3c(OC)cc(OC)c(OC)c3o2)cc1OC` [Isosinensetin]: the “229E Inhibition rate” value came to 42%.
`CC(=O)[C@H]1CC[C@H]2[C@@H]3CC=C4C[C@@H](O)CC[C@]4(C)[C@H]3CC[C@]12C` [Pregnenolone]: the “229E Inhibition rate” value is given as 40.7%.
Consider `O=C(O)CNC(=O)c1ccco1` [2-Furoylglycine], for which the “229E Inhibition rate” value was 6.8%.
As for `O=C(O)[C@H]1O[C@@H](Oc2cc(O)c3c(=O)cc(-c4ccc(O)c(O)c4)oc3c2)[C@H](O)[C@@H](O)[C@@H]1O` [Luteolin 7-O-glucuronide], the “229E Inhibition rate” value was found to be 11.2%.
For the molecule `O=c1ccc2ccc(O[C@@H]3O[C@H](CO)[C@@H](O)[C@H](O)[C@H]3O)c(O)c2o1` [Daphnin], the “229E Inhibition rate” value is 5.9%.
As to `CC(/C=C/C(=O)NO)=C\[C@@H](C)C(=O)c1ccc(N(C)C)cc1` [Trichostatin A], the “229E Inhibition rate” value is 1.9%.
`CC(=O)O[C@@H](CC=C(C)C)C1=CC(=O)c2c(O)ccc(O)c2C1=O` [Acetylalkannin]: the “229E Inhibition rate” value is 10.1%.
`CCC(C)CC(=O)O` (stereo not drawn) [3-Methylvaleric Acid]: the “229E Inhibition rate” value was 17%.
With `O=C(O)[C@@H](O)CO` [L-Glyceric acid (sodium)], the “229E Inhibition rate” value is recorded as 18.8%.
On to `CC1(C)[C@@H](O)CC[C@]2(C)[C@H]3C(=O)C=C4[C@H]5C[C@@](C)(C(=O)O)CC[C@]5(C)CC[C@@]4(C)[C@]3(C)CC[C@@H]12` [18α-Glycyrrhetinic acid], for which the “229E Inhibition rate” value came to 19.8%.
Take `CC1=C(CCC(=O)O)c2cc3nc(cc4[nH]c(cc5[nH]c(cc1n2)c(C)c5CCC(=O)O)c(CCC(=O)O)c4C)C(CCC(=O)O)=C3C` [Coproporphyrin III]: the “229E Inhibition rate” value came to 9.5%.
With `CC(=O)c1c(O)cc(O)cc1O` [Phloracetophenone], the “229E Inhibition rate” value was 14.2%.
For the molecule `CC(C)CCC[C@@H](C)[C@H]1CC[C@H]2[C@@H]3CC[C@H]4C[C@@H](O)CC[C@]4(C)[C@H]3CC[C@]12C` [5α-Cholestan-3β-ol], the “229E Inhibition rate” value is reported as 6.7%.
`COc1cc(C(=O)O)cc(OC)c1OC` [3,4,5-Trimethoxybenzoic acid]: the “229E Inhibition rate” value is recorded as 11.2%.
`COc1ccc(CCNC(=O)/C=C/c2ccc(O)c(O)c2)cc1` [N-Caffeoyl O-methyltyramine]: the “229E Inhibition rate” value is recorded as 27.1%.
`C/C=C/C=C/C(=O)O` [Potassium sorbate]: the “229E Inhibition rate” value (229E Inhibition rate, 24 h) is given as 12.1%.
On to `Cc1cc(=O)oc2c(O)c(O)ccc12` [4-Methyldaphnetin], for which the “229E Inhibition rate” value is 9.1%.
As to `C[C@H](CCC(=O)NCCS(=O)(=O)O)[C@H]1CC[C@H]2[C@@H]3CC[C@@H]4C[C@H](O)CC[C@]4(C)[C@H]3CC[C@]12C` [Taurolithocholic acid (sodium salt)], the “229E Inhibition rate” value was determined as 0%.
Regarding `CC(C)CCCCCCCCC[C@@H]1CC(=O)N[C@@H](CCC(=O)O)C(=O)N[C@@H](CC(C)C)C(=O)N[C@H](CC(C)C)C(=O)N[C@@H](C(C)C)C(=O)N[C@@H](CC(=O)O)C(=O)N[C@H](CC(C)C)C(=O)N[C@@H](CC(C)C)C(=O)O1` [Surfactin] (EL[dL]VD[dL]L; linker N-C via X2), the “229E Inhibition rate” value was 0%.
